Amino acid sequences for entries named in this document (tags omitted). A change or cut given only in a name is not applied to a line headed by its entry.
UniProt Q08351: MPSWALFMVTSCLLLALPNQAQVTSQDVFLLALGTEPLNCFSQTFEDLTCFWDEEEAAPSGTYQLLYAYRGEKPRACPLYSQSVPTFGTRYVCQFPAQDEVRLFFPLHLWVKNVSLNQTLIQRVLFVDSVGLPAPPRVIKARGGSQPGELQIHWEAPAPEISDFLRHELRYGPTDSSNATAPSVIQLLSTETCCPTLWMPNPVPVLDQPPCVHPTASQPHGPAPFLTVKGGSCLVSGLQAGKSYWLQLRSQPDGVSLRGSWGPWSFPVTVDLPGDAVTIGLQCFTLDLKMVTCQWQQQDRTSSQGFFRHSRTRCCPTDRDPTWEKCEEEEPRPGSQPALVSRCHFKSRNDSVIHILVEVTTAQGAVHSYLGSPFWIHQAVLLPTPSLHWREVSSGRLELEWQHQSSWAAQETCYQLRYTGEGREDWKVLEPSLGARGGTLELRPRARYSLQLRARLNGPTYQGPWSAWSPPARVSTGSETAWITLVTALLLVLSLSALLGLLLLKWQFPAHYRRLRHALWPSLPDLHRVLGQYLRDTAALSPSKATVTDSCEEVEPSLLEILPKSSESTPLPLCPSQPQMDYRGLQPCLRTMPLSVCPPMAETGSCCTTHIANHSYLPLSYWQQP

According to publication PMC10850085 (Nature Communications, 2024):

Target: T1, peptide version of romiplostim (two copies of … connected by a GG linker)
T1 sequence (peptide, N-terminal biotin moiety): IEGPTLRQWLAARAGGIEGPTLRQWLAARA
Test: SPR; TpoR (monomeric, dimeric or mutants) as analyte over N-terminally biotinylated romiplostim peptides on streptavidin chips; HBS-EP; two-fold dilution series, highest 100 nM; both purified

binding | Substance
binds | murine TpoR (F105A) (from UniProt Q08351) (receptor)
no binding | murine TpoR (F104S) (from UniProt Q08351) (receptor)

Results are given in words; binding and its absence hold for the method and conditions named. Binding calls can cover weak binding; strength is not graded here.
